Results are given in words; binding and its absence hold for the method and conditions named. In cells and extracts the contact can be indirect. Some results given as binding are weak or reduced against the parent protein; the word gives no strength.
Target: eukaryotic translation initiation factor eIF2 α subunit (rat (endogenous in rat diploid fibroblasts)) (UniProt P68101)
Test: co-IP; eIF2α antibody (or control IgG) conjugated to magnetic Dynabeads M270 Epoxy; lysates of WT and CDC123-A109V rat fibroblasts placed at 33.8 °C or 37 °C for about 18 h; IP lysis buffer 150 mM NaCl, 50 mM Tris-HCl pH 8.0, 1% Triton X-100; 2 h at 4 °C; immunoblot of the eIF2 subunits; less co-precipitate from CDC123-A109V cells at 37 °C

Chains of the proteins cited; added tags and fusions are not shown.
UniProt P68101: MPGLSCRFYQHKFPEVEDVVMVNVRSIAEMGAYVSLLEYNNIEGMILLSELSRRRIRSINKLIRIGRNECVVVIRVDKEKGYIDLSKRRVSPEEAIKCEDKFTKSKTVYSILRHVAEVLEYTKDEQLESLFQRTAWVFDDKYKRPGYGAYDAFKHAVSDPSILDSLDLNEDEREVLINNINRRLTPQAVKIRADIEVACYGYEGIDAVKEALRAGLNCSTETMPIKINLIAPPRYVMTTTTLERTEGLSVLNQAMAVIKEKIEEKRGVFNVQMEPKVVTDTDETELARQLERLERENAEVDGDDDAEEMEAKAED
UniProt P81795: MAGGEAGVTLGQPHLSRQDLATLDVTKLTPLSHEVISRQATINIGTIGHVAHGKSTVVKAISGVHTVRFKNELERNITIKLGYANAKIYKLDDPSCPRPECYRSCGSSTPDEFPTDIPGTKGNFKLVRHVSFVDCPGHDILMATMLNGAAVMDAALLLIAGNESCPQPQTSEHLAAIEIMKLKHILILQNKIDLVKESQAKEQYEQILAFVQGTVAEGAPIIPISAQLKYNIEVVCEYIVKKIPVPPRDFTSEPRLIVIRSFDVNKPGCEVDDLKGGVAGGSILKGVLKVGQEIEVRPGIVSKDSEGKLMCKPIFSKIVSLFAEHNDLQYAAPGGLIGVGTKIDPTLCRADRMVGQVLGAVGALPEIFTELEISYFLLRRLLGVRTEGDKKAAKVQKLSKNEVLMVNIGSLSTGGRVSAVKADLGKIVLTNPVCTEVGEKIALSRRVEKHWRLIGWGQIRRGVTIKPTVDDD

For “eukaryotic translation initiation factor eIF2 γ subunit (from UniProt P81795 1-472)”, which binding is on record?
The binding was “binds”.

Source: article PMC12860950
